PubChem BioAssay AID1224826 | NIAID – 2016

Purpose: 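Genes that change LPS-induced Tnf promoter activity in mouse macrophages when knocked down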 (primary screen)
Cell system: RAW264.7 G9 macrophages from mouse bearing reporters for p65 (GFP) and the Tnf promoter (mCherry)
Reagents: siRNA pool against mouse genes, 100 nM
Time to read-out: 16 h of LPS stimulation, after 2 days of siRNA transfection
Treatment: bacterial lipopolysaccharide (Salmonella minnesota R595), 10 ng/ml
Measurement: 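Imaged Tnf reporter mCherry in nuclei, minus background, normalised per plate to the median and expressed as robust z-scores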
Direction: Tnf reporter robust z-score: higher = stronger Tnf promoter reporter signal after LPS
Hit rule: 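Called active when robust z-score is at most -1.3, matching the median of the Tlr4 knock-down control, or over 3; control wells and wells with under 50 cells never active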
Calls: active = Tnf reporter clearly lowered or raised; inactive = no clear change in Tnf reporter
This is one part, drawn at random, of about 17,000 reagents tested. Of all reagents, about 1,110 (6.6%) were called active. 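Active means lowered or raised reporter signal; replicate intensities are raw and not normalised per plate.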 Not all columns of the deposit are shown. No sequences are given here.

Plbd1 | Tnf reporter robust z-score = 1.19; fewer than 50 cells in well = enough cells in well; Call = inactive
Bap1 | Tnf reporter robust z-score = -0.58; fewer than 50 cells in well = enough cells in well; Call = inactive
Zfp637 | Tnf reporter robust z-score = 1.17; fewer than 50 cells in well = enough cells in well; Call = inactive
Relch | fewer than 50 cells in well = fewer than 50 cells per well; well left out of calls; Call = inactive
Cdk11b | Tnf reporter robust z-score = -0.66; fewer than 50 cells in well = enough cells in well; Call = inactive
Pias4 | Tnf reporter robust z-score = -0.77; fewer than 50 cells in well = enough cells in well; Call = inactive
Coro1c | Tnf reporter robust z-score = -0.51; fewer than 50 cells in well = enough cells in well; Call = inactive
Disp3 | Tnf reporter robust z-score = -1.51; fewer than 50 cells in well = enough cells in well; Call = active
Or52a5 | Tnf reporter robust z-score = 0.67; fewer than 50 cells in well = enough cells in well; Call = inactive
Rnf227 | Tnf reporter robust z-score = -0.67; fewer than 50 cells in well = enough cells in well; Call = inactive
Bloc1s4 | Tnf reporter robust z-score = -0.37; fewer than 50 cells in well = enough cells in well; Call = inactive
Notum | Tnf reporter robust z-score = -0.2; fewer than 50 cells in well = enough cells in well; Call = inactive
Myb | Tnf reporter robust z-score = 0.52; fewer than 50 cells in well = enough cells in well; Call = inactive
Plekhm3 | Tnf reporter robust z-score = 1.02; fewer than 50 cells in well = enough cells in well; Call = inactive

Part of the list above, reformatted:
{"gene":"Cdk11b","Tnf reporter robust z-score":-0.66,"fewer than 50 cells in well":"enough cells in well","Call":"inactive"}
{"gene":"Pias4","Tnf reporter robust z-score":-0.77,"fewer than 50 cells in well":"enough cells in well","Call":"inactive"}
